The first data set concerns rFIX. Description: Evaluation of the efficacy of different nucleophilic catalysts: polysialylation of rFIX with aminooxy-PSA, SEC-HPLC. The conditions noted are these: SEC-HPLC; 10 mM catalyst, 1 mg/ml rFIX, pH 6.0, 5-fold molar aminooxy-PSA reagent excess, 100 µM NaIO4, 2 hrs, room temperature. (In general: SEC sorts molecules by how far they enter the pores of the column.)
Take `Nc1ccccc1C(=O)O` [o-aminobenzioc acid, o-aminobenzoic acid]: the “di-PSAylated rFIX” value amounted to 30.9%, the “free rFIX” value was 30.6% and the “mono-PSAylated rFIX” value is reported as 38.5%.
For `NC(=O)c1ccccc1N` [o-aminobenzamide], in that order: 15.9%, 45.7% and 38.4%.
The corresponding values for `Nc1ccccc1` [aniline] are 47.7%, 18.7% and 33.6%.
For `Nc1ccc(S(=O)(=O)O)cc1` [sulfanilic acid], the “di-PSAylated rFIX” value was determined as 11.8%, the “free rFIX” value was 52.4% and the “mono-PSAylated rFIX” value was 35.8%.
In the case of `Nc1cccc(C(=O)O)c1` [m-aminobenzioc acid, m-aminobenzoic acid], the “di-PSAylated rFIX” value is 27.6%, the “free rFIX” value is 34.4% and the “mono-PSAylated rFIX” value is recorded as 38.0%.
For `Nc1ccc(C(=O)O)cc1` [p-aminobenzioc acid, p-aminobenzoic acid], in that order: 18.1%, 42.6% and 39.3%.

Still in this data set, the particulars now being: pH 6.
Take `Cc1cccc(N)c1` [m-toluidine]: the “di-PSAylated rFIX” value is reported as 31.4%, the “free rFIX” value turned out to be 27.8% and the “mono-PSAylated rFIX” value was found to be 40.8%.

The values are drawn from patent EP3505186B1, “NUCLEOPHILIC CATALYSTS FOR OXIME LINKAGE” (Takeda Pharmaceutical Company Limited, priority 2010, dated 2012).
